Experiment [1] deals with T1, Ist2 full length cytosolic tail (aa 590-878) (yeast (S. cerevisiae)) (UniProt P38250).
T1 sequence: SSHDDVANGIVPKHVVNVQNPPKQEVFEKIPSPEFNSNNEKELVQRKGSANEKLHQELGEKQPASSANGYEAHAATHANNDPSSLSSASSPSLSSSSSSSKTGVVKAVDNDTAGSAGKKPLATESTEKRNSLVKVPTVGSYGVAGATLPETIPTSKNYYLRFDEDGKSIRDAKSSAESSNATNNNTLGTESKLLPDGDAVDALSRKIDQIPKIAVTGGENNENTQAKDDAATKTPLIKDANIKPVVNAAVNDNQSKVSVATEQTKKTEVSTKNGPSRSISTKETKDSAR
Description: two-hybrid.

Experiment [2] addresses T2, Ist2 fragment aa 729-747 (yeast (S. cerevisiae)) (UniProt P38250).
T2 sequence: SYGVAGATLPETIPTSKNY
The experiment can be described thus: two-hybrid.

No constants are given. Whether binding was seen depends on the method and setting. Some entries that bind do so weakly or less than the wild type.

Experimental findings from publication doi:10.1101/2020.01.31.928440 are described below.

B1: Osh7 (two-hybrid prey) (protein, UniProt P38755 1-437)
chain: MALNKLKNIPSLTNSSHSSINGIASNAANSKPSGADTDDIDENDESGQSILLNIISQLKPGCDLSRITLPTFILEKKSMLERITNQLQFPDVLLEAHSNKDGLQRFVKVVAWYLAGWHIGPRAVKKPLNPILGEHFTAYWDLPNKQQAFYIAEQTSHHPPESAYFYMIPESNIRVDGVVVPKSKFLGNSSAAMMEGLTVLQFLDIKDANGKPEKYTLSQPNVYARGILFGKMRIELGDHMVIMGPKYQVDIEFKTKGFISGTYDAIEGTIKDYDGKEYYQISGKWNDIMYIKDLREKSSKKTVLFDTHQHFPLAPKVRPLEEQGEYESRRLWKKVTDALAVRDHEVATEEKFQIENRQRELAKKRAEDGVEFHSKLFRRAEPGEDLDYYIYKHIPEGTDKHEEQIRSILETAPILPGQTFTEKFSIPAYKKHGIQKN
Take B1: the binding entry in experiment [1] and in experiment [2] was “binds” each time.
